Assay results: paper PMC5085121
Results are given in words; binding and its absence hold for the method and conditions named. In cells and extracts the contact can be indirect. Some binding calls cover weakened binding; strength is not graded here. Sequences can lack the tags named with a protein.

By UniProt entry, the sequences of proteins in these tests, tags left out. Where a name states a change or a piece, a line headed by the entry shows the natural chain unless it says otherwise. Chains listed by the source or under a name are the forms on record and can include a tag or linker.
HA-tagged constitutively-activated Rheb(64L) (Q15382, form named): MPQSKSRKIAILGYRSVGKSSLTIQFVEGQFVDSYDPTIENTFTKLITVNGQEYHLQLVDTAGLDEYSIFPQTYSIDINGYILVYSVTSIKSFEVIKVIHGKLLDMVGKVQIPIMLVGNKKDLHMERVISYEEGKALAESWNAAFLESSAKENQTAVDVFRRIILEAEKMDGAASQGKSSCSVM

Target: T1, GFP-tagged RASSF1A (UniProt Q9NS23)
T1 sequence: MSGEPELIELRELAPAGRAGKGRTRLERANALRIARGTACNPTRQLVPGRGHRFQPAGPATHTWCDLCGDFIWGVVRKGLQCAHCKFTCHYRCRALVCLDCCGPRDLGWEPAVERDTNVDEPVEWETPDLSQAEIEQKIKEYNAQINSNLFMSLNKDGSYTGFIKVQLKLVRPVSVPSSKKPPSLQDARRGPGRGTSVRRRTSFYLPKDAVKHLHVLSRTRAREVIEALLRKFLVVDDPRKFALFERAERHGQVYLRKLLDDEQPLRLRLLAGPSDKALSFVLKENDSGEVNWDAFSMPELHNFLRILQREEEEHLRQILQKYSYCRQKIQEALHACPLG
Test: co-IP; HEK-293T cells co-transfected with HA-Rheb (wild type or 64L) and GFP-RASSF1A, lysed 24 h later in modified RIPA buffer (150mM NaCl, 50mM Tris, pH 7.5, 1% NP-40); precleared lysates immunoprecipitated for GFP (GFP-Trap agarose beads), blotted with anti-HA and anti-GFP

“HA-tagged constitutively-activated Rheb(64L) (from UniProt Q15382 1-184)” was tested, and the binding was “binds”.

For “HA-tagged wild type Rheb (from UniProt Q15382 1-184)”, the binding was “binds weakly”.
